The experiment is described as follows: IkB Signaling. To be noted: ABC-DLBCL IkBa-CBG/CBR dual luciferase ratio (green luciferase fused to IkBa over red control in OCI-Ly3 lymphoma cells), 4 h. In short, it runs like this: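 Luminescence ratio of IκBα-fused green versus native red beetle luciferase in OCI-Ly3 cells, 4 h post-doxycycline with compound; red signal alone, scaled from basal (0%) to zero light (-100%), flagged nonspecific or cytotoxic effects.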
Where [1] appears, read: measured here: control luc red channel unless noted.

In PubChem BioAssay AID445 (National Center for Advancing Translational Sciences (NCATS), 2006) one finds AC50 data, which are given here for 39 compounds.

The structures appear in SMILES notation. This is one part of the list. Shown are side measurements of this screen, not its main read-out; they come without a call. The list favours compounds with an active or inconclusive main result. Words in brackets tell the shape of the fitted curve; partial curves, single points and poor fits give uncertain potencies.

The term AC50 denotes the concentration at which the activity in the assay is half-maximal. Consider `Cc1ccc(-n2c(SCC(=O)OC(C)C)nnc2-c2ccncc2)cc1`, for which the AC50 under setting [1] is 2 µM [falling, full curve]. On the same count and under the same terms, to `Cc1ccc2c(c1)N(C(=O)N1CCC(C(=O)NCCc3ccccc3)CC1)CC(C)O2` (stereo not given) belongs 6.31 µM [falling, partial curve]. For the compound `CC(C)Oc1ccc(CNC(=O)c2ccc(NC(=O)N3CC(C)Sc4ccccc43)cc2)cc1` (stereo not given), the AC50 under setting [1] was 10 µM [falling, partial curve].

Consider `CC1CCc2onc(C(=O)N3CCN(c4cccc(Cl)c4)CC3)c2C1` (stereo not given), for which, under setting [1], the AC50 was 3.98 µM [falling, partial curve]. As for `Cc1cc(C)c(S(=O)(=O)NCC(c2ccco2)S(=O)(=O)c2cccs2)c(C)c1` (stereo not given), under setting [1], the AC50 was 31.6 µM [falling, single point].

Take `Cc1cc(Br)cc2c1N(Cc1ccccc1OC(C)C)C(=O)C2=O`: the AC50 under setting [1] was 12.6 µM [falling, partial curve]. `Cc1cccc(-c2noc(CN(C)S(=O)(=O)c3cc(Cl)ccc3Cl)n2)c1`: the half-maximal activity concentration (AC50) under setting [1] was 10 µM [falling, partial curve].

Consider `Cc1ccc(OCCC(=O)OCC(=O)Nc2ccc(Cl)cn2)cc1`, for which the AC50 under setting [1] is 25.1 µM [falling, partial curve].

Consider `CCCCNc1c(C(=O)OCC)c(C)nc2c1cnn2CC`, for which the AC50 under setting [1] is 31.6 µM [falling, partial curve]. Same read-out and setting: to `COc1ccc(CCNC(=O)c2cc(=O)c3ccc(C)cc3o2)cc1OC` belongs 39.8 µM [falling, single point]. Same read-out and setting: to `CCCCCn1c(=O)[nH]c2cc(C(=O)NC(C)CC)ccc2c1=O` (stereo not given) belongs 7.94 µM [falling, full curve]; to `CCOc1ccc(CNC(=O)c2ccc3c(c2)nc2n3CCCCC2)cc1`, 6.31 µM [falling, partial curve]; to `COc1ccc(C(=O)Nc2ccc3oc(-c4cccnc4)nc3c2)cc1OC`, 12.6 µM [falling, partial curve]. The same measure, in the same setting: next, `CCc1cnc2c(c1SCC(=O)Nc1ccc(C(=O)OC)cc1)c(=O)n(C)c(=O)n2C`: 0.251 µM [falling, partial curve, poor fit].

For the compound `O=C(COC(=O)c1cccc(NC(=O)c2ccc(Br)cc2)c1)c1ccc(Cl)cc1`, the AC50 under setting [1] was 12.6 µM [falling, partial curve]. On the same count and under the same terms, next, `Cc1cccc(Cn2c(COc3ccccc3)nc3ccccc32)c1`: 15.8 µM [falling, partial curve]; `CCOC(=O)c1nn(-c2ccc(OC)cc2)c(=O)c2c(N)scc12`: 39.8 µM [rising, single point] [measured here: IkB-luc green channel]; `O=C(NCc1cccs1)c1ccc(CSc2nc3ccncc3n2Cc2ccccc2F)cc1`: 15.8 µM [falling, single point]. For the compound `Cc1ccc(C(=O)CSc2nnc(-c3ccco3)n2Cc2ccccc2)cc1`, the AC50 under setting [1] was 15.8 µM [falling, partial curve]. For `Cc1cc(/C=N/n2cnnc2)c(C)n1-c1ccc(OCc2ccccc2F)cc1`, the AC50 under setting [1] was 7.94 µM [falling, full curve].

Consider `COc1cc(Cl)c(C)cc1Nc1nc2ccccc2n2cnnc12`, for which, under setting [1], the AC50 was 5.01 µM [rising, full curve, poor fit]. For `O=C(NCCc1csc(-c2ccc(F)cc2)n1)c1cccc(F)c1`, the AC50 under setting [1] is 20 µM [falling, partial curve]. On the same count and under the same terms, next, `COc1ccc(NC(=O)c2nc(-c3ccc(C)cc3)n3c2CCCCC3)c(OC)c1`: 39.8 µM [falling, single point]; `CCc1cccc(C)c1NC(=O)c1cnn(-c2ccc(OC)cc2)c1C1CCN(C(=O)OC(C)(C)C)CC1`: 20 µM [falling, partial curve].

For `Nc1nc(Sc2ccc([N+](=O)[O-])c3nonc23)c2[nH]cnc2n1`, under setting [1], the AC50 was 3.98 µM [rising, partial curve] [measured here: IkB-luc green channel].

Regarding `CCOCCc1nn2c(=O)cc(COC(=O)c3ccc(NC(=O)C(C)(C)C)cc3)nc2s1`, the AC50 under setting [1] was 39.8 µM [falling, single point]. On the same count and under the same terms, to `COCCNC(=O)c1cc(-c2cccs2)on1` belongs 12.6 µM [rising, partial curve] [measured here: IkB-luc green channel].

For `Cc1ccc(SCC(=O)Nc2ccc3oc(-c4ccccc4F)nc3c2)cc1`, the AC50 under setting [1] was 0.2 µM [falling, full curve, poor fit]. The same measure, in the same setting: next, `CCOC(=O)c1ccccc1NC(=O)c1cnc(N2CCOCC2)c2ccccc12`: 0.631 µM [rising, full curve, poor fit]; `Cc1cn2c(=O)cc(COC(=O)c3ccc(NC(=O)C(C)Oc4ccccc4)cc3)nc2s1` (stereo not given): 39.8 µM [falling, single point]; `O=C(Nc1cc(Cl)cc(Cl)c1)c1cc(S(=O)(=O)N2CCC3(CC2)OCCO3)ccc1F`: 15.8 µM [falling, partial curve].

`COc1cccc(NC(=O)Cc2csc(COc3cccc(C)c3)n2)c1`: under setting [1], the AC50 is 25.1 µM [falling, partial curve].

For `CCOc1ccccc1N1CCN(C(=O)Nc2cccc(Cl)c2)CC1`, the AC50 under setting [1] was 25.1 µM [falling, single point]. The same measure, in the same setting: next, `Cc1ccc(-c2ccc(CCC(=O)O)n2-c2cccc(C)c2C)cc1`: 15.8 µM [falling, partial curve]; `Cc1ccc(C)c(N2CCN(C(=O)CN3C(=O)COc4ccc(S(=O)(=O)N5CCC(C)CC5)cc43)CC2)c1`: 12.6 µM [falling, partial curve]. On the same count and under the same terms, to `CCOc1ccc(Br)cc1S(=O)(=O)Nc1cccc(-c2ccc(OC)nn2)c1` belongs 15.8 µM [falling, single point].

In the case of `O=c1[nH]c(=O)n([C@H]2C[C@H](O)[C@@H](CO)O2)cc1Br`, the AC50 (measured here: IkB-luc green channel) was 5.01 µM [rising, partial curve, poor fit] and the AC50 (measured here: control luc red channel) was 3.16 µM [rising, partial curve, poor fit]. For the compound `Cc1ccc(Cl)cc1N1CCN(C(=O)c2ccc3c(c2)N(Cc2ccccc2)CCS3)CC1`, the AC50 under setting [1] is 15.8 µM [falling, partial curve]. Consider `COc1ccccc1CNc1nc2nc(C)c(Cl)c(=O)n2[nH]1`, for which, under setting [1], the AC50 was 7.94 µM [falling, partial curve].
